Some of the results follow.
Columns and labels:
Assay in all cases: log2 fold change, soluble protein after heating vs DMSO (PISA); higher = thermal stabilisation; K562 lysate, 10 uM; active = over 0.2 and 3.5 SD of the protein, either way, in both replicates (recomputed)
[1] = compound: C1=CC=C(C=C1)[C@H](COC2=CC3=C(C=C2)NC(=O)N3)NC(=O)C4=CC=CN(C4=O)CC5=CC(=C(C=C5)F)F
Outline: (§1)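 Soluble protein was defined as the supernatant remaining after 21,000xg for 90 min, following pooling of heated aliquots and adjustment to 0.5% NP-40 at 4°C. Before that, crude K562 extract at 1 mg/mL protein in PBS pH 7.4 with 1 mM MgCl2 was treated with 10 μM compound for 30 min and heated for 3 min across 48°C-58°C. Quantification used TMTpro 16plex LC-MS/MS with channel sums equalised, and values are log-two fold changes in thermal stability relative to solvent controls from duplicates.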

By UniProt entry, the sequences of proteins in these tests, tags left out. Where a name states a change or a piece, a line headed by the entry shows the natural chain unless it says otherwise.
UniProt P29083: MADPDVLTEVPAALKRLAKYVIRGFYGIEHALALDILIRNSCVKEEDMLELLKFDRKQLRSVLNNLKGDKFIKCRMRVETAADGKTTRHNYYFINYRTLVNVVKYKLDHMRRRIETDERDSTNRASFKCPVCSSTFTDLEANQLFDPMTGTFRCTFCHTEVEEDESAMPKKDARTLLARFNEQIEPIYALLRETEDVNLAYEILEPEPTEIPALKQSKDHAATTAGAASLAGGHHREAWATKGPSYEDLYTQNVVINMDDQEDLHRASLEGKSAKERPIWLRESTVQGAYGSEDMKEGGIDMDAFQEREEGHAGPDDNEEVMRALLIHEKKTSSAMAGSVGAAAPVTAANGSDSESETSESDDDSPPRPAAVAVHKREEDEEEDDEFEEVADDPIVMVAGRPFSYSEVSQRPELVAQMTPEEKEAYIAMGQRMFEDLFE
UniProt Q7Z4V5: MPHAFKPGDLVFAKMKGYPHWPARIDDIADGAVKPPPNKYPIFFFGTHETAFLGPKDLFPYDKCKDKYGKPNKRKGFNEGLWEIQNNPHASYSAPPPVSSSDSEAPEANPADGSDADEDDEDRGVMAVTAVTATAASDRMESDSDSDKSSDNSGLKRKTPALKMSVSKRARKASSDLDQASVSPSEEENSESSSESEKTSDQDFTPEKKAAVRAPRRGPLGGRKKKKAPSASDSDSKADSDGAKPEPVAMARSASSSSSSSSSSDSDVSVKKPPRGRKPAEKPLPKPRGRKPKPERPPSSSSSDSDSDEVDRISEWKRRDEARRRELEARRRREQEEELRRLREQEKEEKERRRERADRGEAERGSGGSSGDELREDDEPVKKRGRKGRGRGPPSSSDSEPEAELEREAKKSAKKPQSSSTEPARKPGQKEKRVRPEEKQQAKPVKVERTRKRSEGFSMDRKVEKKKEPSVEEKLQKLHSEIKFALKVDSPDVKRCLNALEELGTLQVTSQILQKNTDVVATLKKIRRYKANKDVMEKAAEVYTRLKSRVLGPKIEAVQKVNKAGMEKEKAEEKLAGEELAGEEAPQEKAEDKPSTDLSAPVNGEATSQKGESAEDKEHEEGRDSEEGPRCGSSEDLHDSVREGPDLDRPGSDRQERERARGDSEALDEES
UniProt P02724: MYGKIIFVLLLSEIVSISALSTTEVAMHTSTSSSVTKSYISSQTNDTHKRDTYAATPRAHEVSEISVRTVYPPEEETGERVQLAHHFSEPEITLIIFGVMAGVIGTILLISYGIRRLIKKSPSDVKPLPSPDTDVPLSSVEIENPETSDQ
UniProt Q9BSH5: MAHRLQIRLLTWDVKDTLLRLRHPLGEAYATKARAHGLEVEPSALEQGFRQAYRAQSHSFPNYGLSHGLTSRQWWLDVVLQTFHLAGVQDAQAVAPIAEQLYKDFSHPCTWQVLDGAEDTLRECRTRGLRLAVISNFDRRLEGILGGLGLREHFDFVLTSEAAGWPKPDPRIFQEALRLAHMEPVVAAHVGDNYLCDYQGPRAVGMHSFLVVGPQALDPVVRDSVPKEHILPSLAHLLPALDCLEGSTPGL
UniProt Q7Z4H7: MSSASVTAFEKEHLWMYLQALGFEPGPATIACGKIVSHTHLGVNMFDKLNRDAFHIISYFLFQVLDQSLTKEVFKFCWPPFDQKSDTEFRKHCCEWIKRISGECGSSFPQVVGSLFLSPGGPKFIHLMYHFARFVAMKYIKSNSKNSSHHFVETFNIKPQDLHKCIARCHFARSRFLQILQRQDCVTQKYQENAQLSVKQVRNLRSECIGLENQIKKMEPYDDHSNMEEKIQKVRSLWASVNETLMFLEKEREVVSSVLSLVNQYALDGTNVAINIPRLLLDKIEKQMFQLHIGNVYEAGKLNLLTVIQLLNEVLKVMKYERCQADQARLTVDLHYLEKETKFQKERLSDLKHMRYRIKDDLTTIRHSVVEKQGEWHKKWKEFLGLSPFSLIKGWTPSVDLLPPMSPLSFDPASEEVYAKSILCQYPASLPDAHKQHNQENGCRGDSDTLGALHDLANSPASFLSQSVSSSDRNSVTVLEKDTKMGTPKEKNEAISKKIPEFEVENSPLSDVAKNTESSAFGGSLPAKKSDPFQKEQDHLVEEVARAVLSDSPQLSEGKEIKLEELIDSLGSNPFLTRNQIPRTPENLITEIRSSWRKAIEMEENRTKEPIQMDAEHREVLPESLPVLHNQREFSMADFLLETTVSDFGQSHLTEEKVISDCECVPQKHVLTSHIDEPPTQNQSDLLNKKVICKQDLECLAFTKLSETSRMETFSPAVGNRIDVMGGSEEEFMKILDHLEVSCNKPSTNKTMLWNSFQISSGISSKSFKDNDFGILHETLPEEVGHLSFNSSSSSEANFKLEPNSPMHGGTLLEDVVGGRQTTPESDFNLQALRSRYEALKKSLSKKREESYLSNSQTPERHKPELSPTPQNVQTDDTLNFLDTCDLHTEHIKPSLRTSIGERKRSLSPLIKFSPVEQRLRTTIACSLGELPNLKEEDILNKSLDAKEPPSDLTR
UniProt Q99871: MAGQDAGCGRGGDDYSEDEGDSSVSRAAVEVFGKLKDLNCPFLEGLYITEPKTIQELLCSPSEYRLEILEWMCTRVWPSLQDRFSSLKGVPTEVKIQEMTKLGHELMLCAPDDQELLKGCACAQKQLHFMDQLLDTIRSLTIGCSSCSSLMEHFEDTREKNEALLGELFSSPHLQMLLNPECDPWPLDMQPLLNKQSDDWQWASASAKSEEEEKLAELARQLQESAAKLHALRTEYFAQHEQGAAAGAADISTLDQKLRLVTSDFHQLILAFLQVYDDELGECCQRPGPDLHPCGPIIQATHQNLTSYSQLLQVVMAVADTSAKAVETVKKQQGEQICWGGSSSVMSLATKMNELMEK
UniProt P08236: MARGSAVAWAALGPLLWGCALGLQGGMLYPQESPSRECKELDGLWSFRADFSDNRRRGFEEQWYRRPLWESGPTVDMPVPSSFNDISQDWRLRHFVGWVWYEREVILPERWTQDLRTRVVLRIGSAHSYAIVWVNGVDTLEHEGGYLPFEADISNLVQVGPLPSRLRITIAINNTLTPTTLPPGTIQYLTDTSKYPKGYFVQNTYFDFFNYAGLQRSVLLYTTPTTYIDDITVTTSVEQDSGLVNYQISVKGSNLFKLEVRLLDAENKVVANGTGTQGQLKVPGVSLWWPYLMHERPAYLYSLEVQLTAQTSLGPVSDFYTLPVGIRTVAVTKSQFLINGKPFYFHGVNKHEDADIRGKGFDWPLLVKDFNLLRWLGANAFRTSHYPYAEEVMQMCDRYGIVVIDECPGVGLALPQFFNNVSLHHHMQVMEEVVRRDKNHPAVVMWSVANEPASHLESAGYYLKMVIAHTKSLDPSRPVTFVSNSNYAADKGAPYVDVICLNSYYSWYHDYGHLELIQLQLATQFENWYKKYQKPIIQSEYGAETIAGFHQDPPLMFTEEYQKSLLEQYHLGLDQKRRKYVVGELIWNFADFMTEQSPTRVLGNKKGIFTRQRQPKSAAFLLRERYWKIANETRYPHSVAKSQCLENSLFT
UniProt P52655, whole entry, looked up: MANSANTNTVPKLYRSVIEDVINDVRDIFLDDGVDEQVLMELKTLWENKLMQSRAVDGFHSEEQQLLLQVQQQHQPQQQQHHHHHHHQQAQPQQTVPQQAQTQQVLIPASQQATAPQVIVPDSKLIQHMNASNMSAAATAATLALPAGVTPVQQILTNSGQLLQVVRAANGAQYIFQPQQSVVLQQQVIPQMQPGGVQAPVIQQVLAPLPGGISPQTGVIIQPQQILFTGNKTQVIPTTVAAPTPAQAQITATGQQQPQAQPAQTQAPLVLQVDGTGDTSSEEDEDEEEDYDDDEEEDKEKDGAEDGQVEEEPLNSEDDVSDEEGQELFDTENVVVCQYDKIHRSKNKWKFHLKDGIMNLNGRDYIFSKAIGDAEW
UniProt P46976: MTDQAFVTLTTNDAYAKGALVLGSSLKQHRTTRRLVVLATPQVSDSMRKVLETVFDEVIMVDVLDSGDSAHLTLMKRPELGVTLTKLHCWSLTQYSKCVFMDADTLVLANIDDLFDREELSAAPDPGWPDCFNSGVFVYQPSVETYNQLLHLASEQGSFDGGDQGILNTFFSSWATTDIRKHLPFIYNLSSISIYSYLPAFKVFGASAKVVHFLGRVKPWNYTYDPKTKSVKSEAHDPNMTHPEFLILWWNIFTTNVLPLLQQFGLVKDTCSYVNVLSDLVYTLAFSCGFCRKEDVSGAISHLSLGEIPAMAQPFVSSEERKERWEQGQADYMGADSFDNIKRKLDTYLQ
UniProt Q9UQL6: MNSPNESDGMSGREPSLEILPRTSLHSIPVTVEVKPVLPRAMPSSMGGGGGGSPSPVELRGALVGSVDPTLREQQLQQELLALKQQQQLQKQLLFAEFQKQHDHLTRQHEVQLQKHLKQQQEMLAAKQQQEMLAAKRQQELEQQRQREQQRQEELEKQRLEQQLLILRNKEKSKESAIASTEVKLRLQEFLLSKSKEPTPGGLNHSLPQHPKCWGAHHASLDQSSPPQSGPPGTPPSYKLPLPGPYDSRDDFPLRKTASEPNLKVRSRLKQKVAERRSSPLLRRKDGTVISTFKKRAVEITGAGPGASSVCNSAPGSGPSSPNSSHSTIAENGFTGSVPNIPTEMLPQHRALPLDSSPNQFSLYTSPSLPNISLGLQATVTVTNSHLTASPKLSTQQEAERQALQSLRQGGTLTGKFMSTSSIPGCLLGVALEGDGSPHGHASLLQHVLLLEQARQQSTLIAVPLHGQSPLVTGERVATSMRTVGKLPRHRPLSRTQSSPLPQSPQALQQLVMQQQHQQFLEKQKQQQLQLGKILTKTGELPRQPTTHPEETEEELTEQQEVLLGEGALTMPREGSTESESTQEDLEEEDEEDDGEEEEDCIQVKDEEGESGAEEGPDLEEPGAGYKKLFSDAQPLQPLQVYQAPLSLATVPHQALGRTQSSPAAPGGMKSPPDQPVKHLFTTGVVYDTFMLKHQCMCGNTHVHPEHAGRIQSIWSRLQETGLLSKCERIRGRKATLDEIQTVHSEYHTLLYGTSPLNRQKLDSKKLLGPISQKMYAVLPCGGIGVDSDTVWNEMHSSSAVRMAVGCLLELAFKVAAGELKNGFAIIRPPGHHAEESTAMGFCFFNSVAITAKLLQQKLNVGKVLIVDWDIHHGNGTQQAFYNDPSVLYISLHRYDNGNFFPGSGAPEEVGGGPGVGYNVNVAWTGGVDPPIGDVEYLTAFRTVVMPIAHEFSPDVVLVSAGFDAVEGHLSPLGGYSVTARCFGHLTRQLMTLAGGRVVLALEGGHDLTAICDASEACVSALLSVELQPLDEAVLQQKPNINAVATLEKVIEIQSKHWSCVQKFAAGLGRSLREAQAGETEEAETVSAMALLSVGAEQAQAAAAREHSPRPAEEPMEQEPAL
UniProt Q8WUA4: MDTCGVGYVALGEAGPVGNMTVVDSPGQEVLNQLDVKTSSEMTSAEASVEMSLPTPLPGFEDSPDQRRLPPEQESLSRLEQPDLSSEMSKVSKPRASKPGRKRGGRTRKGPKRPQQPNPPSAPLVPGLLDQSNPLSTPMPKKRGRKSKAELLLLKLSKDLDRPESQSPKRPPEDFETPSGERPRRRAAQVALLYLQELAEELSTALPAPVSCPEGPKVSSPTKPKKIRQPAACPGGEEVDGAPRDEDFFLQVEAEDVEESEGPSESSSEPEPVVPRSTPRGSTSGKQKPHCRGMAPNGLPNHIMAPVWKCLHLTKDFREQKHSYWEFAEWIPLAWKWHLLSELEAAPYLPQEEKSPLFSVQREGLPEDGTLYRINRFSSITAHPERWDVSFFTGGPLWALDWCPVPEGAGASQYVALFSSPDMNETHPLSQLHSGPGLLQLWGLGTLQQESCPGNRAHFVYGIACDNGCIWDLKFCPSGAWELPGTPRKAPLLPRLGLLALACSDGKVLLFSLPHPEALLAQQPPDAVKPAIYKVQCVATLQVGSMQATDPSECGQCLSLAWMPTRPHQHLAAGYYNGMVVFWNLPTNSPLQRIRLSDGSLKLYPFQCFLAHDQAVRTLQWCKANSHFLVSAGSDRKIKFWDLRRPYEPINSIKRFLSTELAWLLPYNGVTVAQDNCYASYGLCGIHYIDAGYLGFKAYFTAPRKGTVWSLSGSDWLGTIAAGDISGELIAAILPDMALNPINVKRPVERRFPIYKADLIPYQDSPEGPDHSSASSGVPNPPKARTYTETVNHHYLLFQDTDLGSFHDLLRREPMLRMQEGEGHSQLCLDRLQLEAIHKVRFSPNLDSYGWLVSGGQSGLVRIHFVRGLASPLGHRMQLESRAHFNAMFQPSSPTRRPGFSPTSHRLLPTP
UniProt Q8N4P3, whole entry, looked up: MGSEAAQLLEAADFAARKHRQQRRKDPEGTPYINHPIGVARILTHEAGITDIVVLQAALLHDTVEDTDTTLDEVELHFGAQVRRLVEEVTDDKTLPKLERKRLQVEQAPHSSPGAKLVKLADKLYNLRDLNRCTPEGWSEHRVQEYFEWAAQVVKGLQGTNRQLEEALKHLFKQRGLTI

[2] = compound: CC1=C(SC2=C1C(=N[C@H](C3=NN=C(N32)C)CC(=O)N)C4=CC=C(C=C4)Cl)C
Outline: as §1

[3] = compound: CC1=C2C(=CC=C1)N=C(N(C2=O)C3=CC=CC=C3C)CN4C=NC5=C(N=CN=C54)N
Outline: as §1

[4] = compound: Cc1sc2c(c1C)C(c1ccc(Cl)cc1)=N[C@@H](CC(=O)OC(C)(C)C)c1nnc(C)n1-2
Outline: as §1

[5] = compound: c1ccc([C@@H]2C[C@H]2NC2CCNCC2)cc1
Outline: as §1

Measured: log2 fold change

GXYLT1 (UniProt Q4G148)
inactive: [1] 0.142 | [2] -0.034 | [3] 0.029 | [4] 0.061 | [5] -0.054

GTF2E1 (UniProt P29083)
inactive: [1] 0.029 | [2] 0.012 | [3] -0.006 | [4] -0.022 | [5] -0.078

GTF2F1 (UniProt P35269)
inactive: [1] 0.022 | [2] 0.044 | [3] 0.003 | [4] 0.035 | [5] -0.081

HCFC1 isoform 4 (UniProt P51610)
inactive: [1] 0.014 | [2] -0.001 | [3] -0.006 | [4] -0.001 | [5] 0

HDGFL2 isoform 2 (UniProt Q7Z4V5)
inactive: [1] 0.051 | [2] -0.014 | [3] 0.01 | [4] -0.076 | [5] -0.212

HEATR1 (UniProt Q9H583)
inactive: [1] -0.079 | [2] 0.011 | [3] 0.042 | [4] -0.032 | [5] -0.061

GYPA (UniProt P02724)
inactive: [1] 0.071 | [2] -0.055 | [3] -0.002 | [4] 0.138 | [5] 0.236

GTF3A (UniProt Q92664)
inactive: [1] 0.006 | [2] 0.017 | [3] -0.019 | [4] 0.096 | [5] 0.042

HDHD3 (UniProt Q9BSH5)
inactive: [1] -0.055 | [2] -0.057 | [3] -0.004 | [4] -0.013 | [5] 0.025

HACE1 (UniProt Q8IYU2)
inactive: [1] -0.03 | [2] 0.08 | [3] 0.07 | [4] -0.115 | [5] -0.377

HAUS6 (UniProt Q7Z4H7)
inactive: [1] 0 | [2] -0.012 | [3] 0.021 | [4] 0.005 | [5] 0.041

GSTM4 (UniProt Q03013)
inactive: [1] -0.04 | [2] -0.053 | [3] 0.03 | [4] 0.09 | [5] -0.016

HAUS7 isoform 2 (UniProt Q99871)
inactive: [1] 0.163 | [2] 0.036 | [3] 0.019 | [4] 0.069 | [5] 0.032

GUSB (UniProt P08236)
inactive: [1] 0.035 | [2] 0.022 | [3] 0.016 | [4] -0.051 | [5] -0.313

HDAC2 (UniProt Q92769)
inactive: [1] 0.004 | [2] 0.002 | [3] -0.017 | [4] 0.02 | [5] -0.004

HDLBP, A0A024R4E5
inactive: [1] -0.024 | [2] -0.013 | [3] 0.017 | [4] -0.018 | [5] 0.008

Two entries picked at random from the list so far, as already listed:
HAUS6 (UniProt Q7Z4H7)
inactive: [1] 0 | [2] -0.012 | [3] 0.021 | [4] 0.005 | [5] 0.041

HDAC2 (UniProt Q92769)
inactive: [1] 0.004 | [2] 0.002 | [3] -0.017 | [4] 0.02 | [5] -0.004

Following part.

GSPT2 (UniProt Q8IYD1)
inactive: [1] -0.013 | [2] 0.029 | [3] 0.029 | [4] -0.052 | [5] -0.08

GSTT1 (UniProt P30711)
inactive: [1] -0.12 | [2] -0.017 | [3] 0.01 | [4] -0.028 | [5] 0.033

GTF2A1 (UniProt P52655)
inactive: [1] 0.025 | [2] -0.033 | [3] -0.01 | [4] -0.057 | [5] 0.202

GYG1 isoform 2 (UniProt P46976)
inactive: [1] 0.067 | [2] 0.005 | [3] 0.043 | [4] -0.021 | [5] 0.01

HDAC5 isoform 3 (UniProt Q9UQL6)
inactive: [1] 0.037 | [2] 0.011 | [3] -0.028 | [4] -0.039 | [5] 0.01

GTPBP4 (UniProt Q9BZE4)
inactive: [1] 0.019 | [2] -0.013 | [3] -0.004 | [4] 0.02 | [5] -0.027

GTF3C2 (UniProt Q8WUA4)
inactive: [1] -0.002 | [2] 0.039 | [3] 0.004 | [4] 0.046 | [5] -0.069

HDDC3 (UniProt Q8N4P3)
inactive: [1] -0.024 | [2] -0.017 | [3] -0.055 | [4] -0.089 | [5] 0.037

From the supplement of paper PMC10849652
